# Source: PubChem BioAssay AID540256 (National Center for Advancing Translational Sciences (NCATS), 2011)
# The whole screen tested about 300,000 compounds, of which about 3,700 (1.2%) were called active. Inconclusive results, whose numbers are uncertain, are shown with a selection of clear calls. The call rests on the fitted dose curve; tested in HEK293 cells. Where the call is inconclusive, the potency comes from a doubtful curve fit.
# Assay: qHTS for Inhibitors of binding or entry into cells for Lassa Virus; further: nearly all actives have a fitted effect of over 50% in size
# Details: Lassa virus pseudotype entry inhibition, cell reporter; activity change, negative = inhibition: at 37.9 µM (top of the series) unless noted
# On the % scale 0 is the no-effect control and ±100 the full control effect; potency means the concentration at half of the fitted maximal effect.
Compound,"activity change, negative = inhibition",Potency
COc1ccc(C2c3c(n(C)c4ccccc34)C(=O)N2CC(=O)Nc2cccc(F)c2)cc1 (stereo unspecified),inactive: -12.1% [at 46.1 µM],–
COc1cc(CN2CCCC(C(=O)Nc3cccc(-n4cccn4)c3)C2)ccc1F (stereo unspecified),–,"inconclusive: 35.5 µM [inhibitor, single point]"
O=C(CSc1ncnc2c1cnn2CCc1ccccc1)Nc1cccc(C(F)(F)F)c1,–,"inconclusive: 35.5 µM [inhibitor, single point]"
Cc1ccc(CN2CCN(CC(=O)N=Nc3c(O)[nH]c4ccccc34)CC2)cc1,–,"inconclusive: 0.891 µM [inhibitor, full curve, poor fit]"
C/C(CC(=O)Nc1cc(Cl)ccc1Cl)=N\NC(=O)c1ccco1,inactive: -3.97%,–
COC(=O)c1c(C(=O)OC)c2c3cc(OC)c(OC)cc3ccn2c1C(=O)OC,–,"inconclusive: 0.168 µM [inhibitor, full curve, poor fit]"
NNC(=O)CNC(=O)CNS(=O)(=O)c1ccccc1,inactive: -5.93%,–
CCN(CC)c1nc2c(c(=O)[nH]c(=O)n2C)n1CCOc1ccccc1,inactive: -6.22%,–
CCOc1cc(/C=C/C(=O)Nc2ccc(C(=O)NCCN(CC)CC)cc2)ccc1OCC(C)C,–,"inconclusive: 29.1 µM [inhibitor, single point]"
CC1=Nc2cc(C(=O)NCCCN3CCOCC3)ccc2Sc2c(C)ccc(C)c21,–,"inconclusive: 2.24 µM [inhibitor, full curve, poor fit]"
COC(=O)C1C[C@@]23C(=NN=C(SC)C2N(C)c2ccc(OC)cc23)N1C(C)=O (stereo partly specified),–,inconclusive: 0.0008 µM [inhibitor]
Cc1cc2cc(CNC(=S)NCc3ccccc3)ccc2n1C,inactive: -16.8% [at 46.1 µM],–
O=S(=O)(Cc1cc(N2CCOCC2)nc(-c2ccccn2)n1)c1ccccc1,–,"inconclusive: 14.1 µM [inhibitor, partial curve, poor fit]"
O=C(COc1ccc(Cl)cc1Cl)N(c1ccccn1)C1CCCCC1,inactive: 3.85%,–
CCOC(=O)C1(CCOc2ccccc2)CCN(Cc2ccc3nonc3c2)CC1,inactive: 5.79%,–
Cn1c(=O)c2c(nc(Sc3nc4ccccc4n3CC(=O)N3CCCCC3)n2C)n(C)c1=O,inactive: -0.457%,–
Nc1ccccc1Nc1cc(-c2ccccc2)[nH]n1,inactive: -12.9%,–
COc1ccccc1CNC(=O)CSCc1cnn(-c2ccccc2)c1-n1cccc1,–,"inconclusive: 29.1 µM [inhibitor, single point]"
CC(C)CN1CCN(C(=O)CCc2nnc(Cc3c[nH]c4ccccc34)o2)[C@@H](C)C1=O,inactive: -17.8% [at 46.1 µM],–
COc1ccc(C2Nc3ccccc3C(=O)N2O)cc1OC (stereo unspecified),inactive: 13.1%,–
CCn1ccc2c(OCC(=O)Nc3ccccc3C(F)(F)F)cccc2c1=O,–,"inconclusive: 17.8 µM [inhibitor, single point]"

# Two of the compounds above, with tabs:
Compound	activity change, negative = inhibition	Potency
Nc1ccccc1Nc1cc(-c2ccccc2)[nH]n1	inactive: -12.9%	–
COc1ccccc1CNC(=O)CSCc1cnn(-c2ccccc2)c1-n1cccc1	–	inconclusive: 29.1 µM [inhibitor, single point]
